Results deposited as PubChem BioAssay AID1224826 (NIAID, 2016).
Here is an unselected part of about 17,000 deposited reagents. Over the whole deposit, about 1,110 (6.6%) got an active call. 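Active means lowered or raised reporter signal; replicate intensities are raw and not normalised per plate.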 A number with no mark means an inactive call. Further read-outs or replicates are left out here.

Test: 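Knock-downs that raise or lower Tnf reporter signal after endotoxin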 (primary screen)
Cells: RAW264.7 G9 macrophages from mouse bearing reporters for p65 (GFP) and the Tnf promoter (mCherry)
Reagents: siRNA pool against mouse genes, 100 nM
Time to read-out: 16 h of LPS stimulation, after 2 days of siRNA transfection
Treatment: bacterial lipopolysaccharide (Salmonella minnesota R595), 10 ng/ml
Read-out: 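Nuclear mCherry signal of the Tnf promoter reporter measured by imaging after background removal, scaled to each plate median and turned into robust z-scores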
Scale: Tnf reporter robust z-score: higher = stronger Tnf promoter reporter signal after LPS
Call rule: 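a well counts as active at a score of -1.3 or below (Tlr4 knock-down control median) or above 3 (raised signal); controls and wells holding fewer than 50 cells are excluded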
Meaning of the calls: active = Tnf reporter clearly lowered or raised; inactive = no clear change in Tnf reporter

| Gene | Tnf reporter robust z-score | fewer than 50 cells in well |
| --- | --- | --- |
| Arhgap12 | 0.56 | enough cells in well |
| Mat2b | 0.5 | enough cells in well |
| Fgf1 | -0.21 | enough cells in well |
| Gabarap | -0.01 | enough cells in well |
| Apeh | – | fewer than 50 cells per well; well left out of calls |
| Nrip2 | -0.32 | enough cells in well |
| 4930539J05Rik | 0.2 | enough cells in well |
| Ankrd17 | -0.65 | enough cells in well |
| Vmn1r225 | -0.65 | enough cells in well |
| Thumpd1 | -0.57 | enough cells in well |
| Trp53rka | 0.77 | enough cells in well |
| Whr1 | 3.53 (active) | enough cells in well |
| Tmem239 | 0.46 | enough cells in well |
| Tmbim6 | -0.75 | enough cells in well |
| Or5d39 | -0.14 | enough cells in well |
| Bcr | -0.4 | enough cells in well |
| Nkain4 | -0.3 | enough cells in well |
| Ngrn | -1.15 | enough cells in well |
| Pdha1 | 0.03 | enough cells in well |
| Casc3 | -0.68 | enough cells in well |
| 4931422A03Rik | – | fewer than 50 cells per well; well left out of calls |
| Smim48 | 0.66 | enough cells in well |
| Dapk3 | 0.17 | enough cells in well |
| Ndufv2 | 0.5 | enough cells in well |
| Adamts3 | 1.35 | enough cells in well |
| Zfp445 | -1.02 | enough cells in well |
| Or5h26 | -1.1 | enough cells in well |
| Phactr4 | 0.92 | enough cells in well |
| Bpnt1 | -0.57 | enough cells in well |
| Dhrs3 | 0.44 | enough cells in well |
| Ankfn1 | – | fewer than 50 cells per well; well left out of calls |
| G6pc1 | -0.37 | enough cells in well |
| Pla2g4a | -0.15 | enough cells in well |
| Bmerb1 | – | fewer than 50 cells per well; well left out of calls |
| Vcpip1 | -0.57 | enough cells in well |
| Rxfp4 | -0.76 | enough cells in well |
| Irf5 | 0.51 | enough cells in well |
| Eppk1 | 1.86 | enough cells in well |
| Vmn1r206 | 1.21 | enough cells in well |
| Or10a4 | 1.92 | enough cells in well |
| Egr2 | -0.69 | enough cells in well |
| Prkci | 0.36 | enough cells in well |
| Sypl2 | -0.76 | enough cells in well |
| Ndc1 | -0.27 | enough cells in well |
| Tfeb | 1.46 | enough cells in well |
| Ptch1 | 0.71 | enough cells in well |
| Arg2 | -0.93 | enough cells in well |
| Aldh3b3 | 0.77 | enough cells in well |
| Trim30d | 0.29 | enough cells in well |
| Ctbp1 | -0.73 | enough cells in well |
| Nlk | 0.07 | enough cells in well |
| Kcnn1 | -1.03 | enough cells in well |
| Kynu | 0.58 | enough cells in well |
| Epo | -1.33 (active) | enough cells in well |
| Naip2 | 0.28 | enough cells in well |
| Nfyc | -0.62 | enough cells in well |
| Farsb | -1.31 (active) | enough cells in well |
| Art5 | 0.06 | enough cells in well |
| Pias4 | -0.77 | enough cells in well |
| Rspo3 | 2.14 | enough cells in well |
| Syce2 | -0.36 | enough cells in well |
| 1700010D01Rik | -0.91 | enough cells in well |
| Adam4 | 1.77 | enough cells in well |
| Arrdc1 | -0.87 | enough cells in well |
| Glt1d1 | – | fewer than 50 cells per well; well left out of calls |
| Arpc5 | 0.77 | enough cells in well |
| Bicc1 | 1.62 | enough cells in well |
| Arf6 | -0.39 | enough cells in well |
| Pop4 | -0.59 | enough cells in well |
| Mmp11 | 0.65 | enough cells in well |
| Pcdhgc5 | -1.67 (active) | enough cells in well |
| Epb41l4a | -1.18 | enough cells in well |
| Bin3 | 0.05 | enough cells in well |
| Epop | -0.92 | enough cells in well |
| Slc6a8 | 0.37 | enough cells in well |

Part of the list above, set out differently.
{"Gene": "Arpc5", "Tnf reporter robust z-score": 0.77, "fewer than 50 cells in well": "enough cells in well"}
{"Gene": "Bicc1", "Tnf reporter robust z-score": 1.62, "fewer than 50 cells in well": "enough cells in well"}
{"Gene": "Arf6", "Tnf reporter robust z-score": -0.39, "fewer than 50 cells in well": "enough cells in well"}
{"Gene": "Pop4", "Tnf reporter robust z-score": -0.59, "fewer than 50 cells in well": "enough cells in well"}
